# Data published in article PMC10617613.
# Chains of the proteins cited; added tags and fusions are not shown.
# UniProt P08670: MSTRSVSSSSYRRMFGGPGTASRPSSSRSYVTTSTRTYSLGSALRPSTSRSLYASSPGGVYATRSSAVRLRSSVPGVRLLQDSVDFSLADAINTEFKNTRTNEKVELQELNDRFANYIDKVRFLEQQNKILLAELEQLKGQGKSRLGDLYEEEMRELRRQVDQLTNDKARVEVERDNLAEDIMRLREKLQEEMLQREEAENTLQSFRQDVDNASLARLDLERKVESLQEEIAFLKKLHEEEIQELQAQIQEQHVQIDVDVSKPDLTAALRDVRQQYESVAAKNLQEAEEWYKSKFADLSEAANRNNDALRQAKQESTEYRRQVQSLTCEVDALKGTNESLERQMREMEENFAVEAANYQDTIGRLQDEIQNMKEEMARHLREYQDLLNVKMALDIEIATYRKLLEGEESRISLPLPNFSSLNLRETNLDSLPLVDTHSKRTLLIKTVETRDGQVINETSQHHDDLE
# These are yes or no findings as the source states them, for the method shown. In cells and extracts the contact can be indirect. Some entries that bind do so weakly or less than the wild type.
# B1: GORAB (protein, UniProt Q5T7V8 1-369)
# chain: MAQGWAGFSEEELRRLKQTKDPFEPQRRLPAKKSRQQLQREKALVEQSQKLGLQDGSTSLLPEQLLSAPKQRVNVQKPPFSSPTLPSHFTLTSPVGDGQPQGIESQPKELGLENSHDGHNNVEILPPKPDCKLEKKKVELQEKSRWEVLQQEQRLMEEKNKRKKALLAKAIAERSKRTQAETMKLKRIQKELQALDDMVSADIGILRNRIDQASLDYSYARKRFDRAEAEYIAAKLDIQRKTEIKEQLTEHLCTIIQQNELRKAKKLEELMQQLDVEADEETLELEVEVERLLHEQEVESRRPVVRLERPFQPAEESVTLEFAKENRKCQEQAVSPKVDDQCGNSSSIPFLSPNCPNQEGNDISAALAT
# Target: Vimentin (human (endogenous in HeLaM and human dermal fibroblasts)) (UniProt P08670)
# Assay: proximity ligation; Duolink in situ PLA on fixed, permeabilised human dermal fibroblasts with anti-GORAB and anti-vimentin primary antibodies; controls were GORAB-deficient GO fibroblasts and omission of antibodies
binder,measurement,value
B1,binding,binds
